The record followed here is patent US20180355060A1.

Amino acid sequences for entries named in this document (tags omitted). A change or cut given only in a name is not applied to a line headed by its entry.
UniProt P21980: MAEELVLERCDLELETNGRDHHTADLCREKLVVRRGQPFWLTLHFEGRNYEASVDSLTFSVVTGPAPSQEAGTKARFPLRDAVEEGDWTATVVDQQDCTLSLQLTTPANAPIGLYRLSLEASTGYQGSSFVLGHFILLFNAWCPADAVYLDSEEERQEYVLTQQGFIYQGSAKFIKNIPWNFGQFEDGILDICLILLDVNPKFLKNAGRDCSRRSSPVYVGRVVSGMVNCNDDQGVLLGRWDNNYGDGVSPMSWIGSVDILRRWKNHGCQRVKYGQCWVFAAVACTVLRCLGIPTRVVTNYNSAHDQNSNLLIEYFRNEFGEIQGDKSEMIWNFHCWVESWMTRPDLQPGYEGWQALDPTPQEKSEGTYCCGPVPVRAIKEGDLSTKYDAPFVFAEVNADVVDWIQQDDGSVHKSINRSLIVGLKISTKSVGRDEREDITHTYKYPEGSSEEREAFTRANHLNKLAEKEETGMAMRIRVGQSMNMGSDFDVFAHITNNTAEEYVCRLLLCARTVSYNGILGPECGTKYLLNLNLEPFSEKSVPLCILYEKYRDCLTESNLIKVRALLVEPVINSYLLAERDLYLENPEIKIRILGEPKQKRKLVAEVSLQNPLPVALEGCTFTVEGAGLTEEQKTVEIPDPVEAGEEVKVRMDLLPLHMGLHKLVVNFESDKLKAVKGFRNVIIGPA

The chains are these.
B1: cBB001 chimeric anti-TG2 antibody (murine BB7 variable regions, human IgG1 and human kappa) (antibody, V domains shown)
VH: AVQLVESGGGLVKPGGSLKLSCAASGIIFSSSAMSWVRQTPEKRLEWVATISSGGRSTYYPDSVKGRFTVSRDSAKNTLYLQMDSLRSEDTAIYYCAKLISPYWGQGTTLTVSS
VL: AIKMTQSPSSMYASLGERVIITCKASQDINSYLTWFQQKPGKSPKTLIYLTNRLMDGVPSRFSGSGSGQEFLLTISGLEHEDMGIYYCLQYVDFPYTFGGGTKLEIK
B2: cDC001 chimeric anti-TG2 antibody (murine DC1 variable regions, human IgG1 and human kappa) (antibody, V domains shown)
VH: EVQLVESGGGLVKPGGSLKLSCAASGFTLSTHAMSWVRQTPEKRLEWVATISSGGRSTYYPDSVKGRFTISRDNVKNTLYLQLSSLRSEDTAVYFCARLISTYWGQGTTLTVSS
VL: DITMTQSPSSIYASLGERVTITCKASQDINSYLTWFQQKPGKSPKILIYLVNRLVDGVPSRFSGSGSGQDYALTISSLEYEDMGIYYCLQYDDFPYTFGGGTKLEIK
B3: cAB003 chimeric anti-TG2 antibody (murine AB1 variable regions, human IgG1 and human kappa) (antibody, V domains shown)
VH: EVQLVESGGGLVKPGGSLKLSCAASGFTLSSSAMSWVRQTPDRRLEWVATISVGGGKTYYPDSVKGRFTISRDNAKNTLYLQMNSLRSEDTAMYYCAKLISLYWGQGTTLTVSS
VL: B2 VL with T3K, I11M, I46T, L50R, V51T, V55F, Y71F, A72F
B4: hBB001AA humanised BB7 antibody (BB7 RHA with BB7 RKA) (antibody, V domains shown)
VH: EVQLLESGGGLVQPGGSLRLSCAASGIIFSSSAMSWVRQAPGKGLEWVATISSGGRSTYYPDSVKGRFTVSRDSSKNTLYLQMNSLRAEDTAVYYCAKLISPYWGQGTLVTVSS
VL: DIKMTQSPSSLSASVGDRVTITCKASQDINSYLTWFQQKPGKAPKTLIYLTNRLMDGVPSRFSGSGSGQEFLLTISSLQPEDFATYYCLQYVDFPYTFGQGTKVEIK
B5: hAB005 (hAB001AJ) humanised AB1 antibody, heavy chain version RHA with light chain version RKJ (antibody, V domains shown)
VH: B4 VH with I27F, I28T, A49S, S53V, R56G, S57K, V70I, S74N, P102L
VL: B4 VL with K3Q, T46S, L50R, M55F, Q69T, E70D, L72F, V92D
B6: hAB004 (hAB001AE) humanised AB1 antibody, heavy chain version RHA with light chain version RKE (antibody, V domains shown)
VH: B4 VH with I27F, I28T, A49S, S53V, R56G, S57K, V70I, S74N, P102L
VL: EIVLTQSPSSLSASVGDRVTITCKASQDINSYLTWYQQKPGKAPKLLIYRTNRLFDGVPSRFSGSGSGTDFFFTISSLQPEDFGTYYCLQYDDFPYTFGGGTKLEIK
B7: hBB001BB humanised BB7 antibody (BB7 RHB with BB7 RKB) (antibody, V domains shown)
VH: B4 VH with I27F, I28T, A49S, V70I, S74N
VL: B4 VL with K3Q, T46S, Q69T, E70D, L72F

Changes are numbered by the printed parent chain. These are yes or no findings as the source states them, for the method shown. Some binding calls cover weakened binding; strength is not graded here.

One assay addresses cynomolgus monkey TG2 (cynomolgus monkey). As to the kind of experiment: SPR (Biacore).
B1: the binding result was “binds”.

Regarding B2, the binding entry was “binds”.

On to B3, for which the binding entry is given as “binds”.

With B4, the binding entry is “binds”.

Consider B5, for which the binding result is “binds”.

Take B6: the binding result is on record as “binds”.

With B7, the binding entry is on record as “binds”.

The target in the next assay is human transglutaminase type 2 (TG2) (human) (UniProt P21980). Kind of assay: SPR (Biacore).
With B3, the binding entry is “binds”.

Take B4: the binding result is given as “binds”.

As for B7, the binding result is on record as “binds”.

The next assay has as its target cynomolgus monkey TG2 (cynomolgus monkey). As to the kind of experiment: SPR (Biacore), figure legend.
Turning to B6, the binding entry was “binds”.

For another assay, the target named is human transglutaminase type 2 (TG2) (human) (UniProt P21980). Kind of assay: SPR (Biacore), figure legend. On the technique in general: Surface plasmon resonance follows binding to a sensor surface in real time, without labels.
In the case of B3, the binding result is listed as “binds”.

A further assay has the same target. As to the kind of experiment: ELISA on plates coated with human TG2. In general terms: In an ELISA, binding on a coated surface is turned into a signal by an enzyme label.
For B3, the binding entry is reported as “binds”.

As for B4, the binding result is “binds”.

For the molecule B7, the binding entry was “binds”.

For another assay, the target named is cynomolgus monkey TG2 (cynomolgus monkey). Kind of assay: ELISA on plates coated with cynomolgus monkey TG2.
With B1, the binding entry is on record as “binds”.

In the case of B2, the binding entry is on record as “binds”.

On to B3, for which the binding result is “binds”.

Consider B4, for which the binding result is listed as “binds”.

As to B6, the binding entry is “binds”.

On to B7, for which the binding entry is listed as “binds”.
